# Reference: PubChem BioAssay AID588590 (National Center for Advancing Translational Sciences (NCATS), 2011)
# Chains of the proteins cited; added tags and fusions are not shown. Lines headed by an entry give the natural chain unless they say otherwise; changes in a name come on top.
# UniProt Q9UNA4: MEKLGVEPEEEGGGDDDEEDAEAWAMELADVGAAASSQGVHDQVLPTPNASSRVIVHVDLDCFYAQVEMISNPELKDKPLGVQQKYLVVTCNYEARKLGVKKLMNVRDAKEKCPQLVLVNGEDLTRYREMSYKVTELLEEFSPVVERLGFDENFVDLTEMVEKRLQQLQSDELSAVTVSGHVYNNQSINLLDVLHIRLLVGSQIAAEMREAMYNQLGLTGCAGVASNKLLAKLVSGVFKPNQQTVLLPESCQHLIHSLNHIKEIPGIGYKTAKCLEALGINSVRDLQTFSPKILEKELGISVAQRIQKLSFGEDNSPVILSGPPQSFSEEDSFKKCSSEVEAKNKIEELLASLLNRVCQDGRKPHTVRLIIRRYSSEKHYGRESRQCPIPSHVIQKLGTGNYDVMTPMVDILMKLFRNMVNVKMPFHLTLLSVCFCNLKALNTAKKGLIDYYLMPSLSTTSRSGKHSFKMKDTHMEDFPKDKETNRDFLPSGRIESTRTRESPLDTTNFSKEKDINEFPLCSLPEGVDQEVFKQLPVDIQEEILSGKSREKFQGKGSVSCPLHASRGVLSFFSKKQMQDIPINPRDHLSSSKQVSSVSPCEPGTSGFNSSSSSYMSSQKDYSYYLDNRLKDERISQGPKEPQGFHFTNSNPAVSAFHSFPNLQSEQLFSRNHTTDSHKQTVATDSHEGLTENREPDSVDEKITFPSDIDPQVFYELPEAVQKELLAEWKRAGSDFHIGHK
# The whole screen tested about 390,000 compounds, of which about 4,000 (1%) were called active. The inconclusive results got no clear call from the source; some entries with a clear call stand among them for comparison. The call rests on the fitted dose curve; in most records, active means well fitted inhibition curve with a large enough effect; inconclusive means small, poorly fitted or top-dose-only effect, or another doubt; inactive means no such curve, though single readings can be large or run the other way. Potencies beside an inconclusive call are fits to weak or partial responses and may not hold up.
# Target: DNA polymerase iota (Homo sapiens) (UniProt Q9UNA4)
# Assay: qHTS for Inhibitors of Polymerase Iota
# Details: Pol iota fluorescent replication assay, 10 min; series mostly up to 115 µM
# Method in brief: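 Pol iota at 10 nM preincubated 15 min with compounds at room temperature; reaction started with fluorescent substrate, 50 nM final. Fluorescence read kinetically at 0 and 10 min; buffer-only wells as negative control.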
# Potency means the concentration at half of the fitted maximal effect.
row,SMILES,Potency
1,O=C(Cc1ccc(Cl)c(Cl)c1)Nc1ccccc1N1CCCC1,"inconclusive: 79.4 µM [inhibitor, single point]"
2,COc1ccc(OCC(=O)Nc2nccs2)cc1,inactive
3,OCCNc1nc(N2CCN(c3ccccc3)CC2)nc2ccccc12,"inconclusive: 56.2 µM [inhibitor, single point]"
4,COc1cc(NC(=O)Cn2c(=O)n(Cc3ccccc3OC)c(=O)c3cccnc32)cc(OC)c1,"inconclusive: 100 µM [inhibitor, partial curve, poor fit]"
5,C=CCn1c(=O)c(C(=O)Nc2ccccc2S(N)(=O)=O)c(O)c2ccccc21,inactive
6,COc1cc(NC(=O)c2cc3ccccc3o2)ccc1NC(=O)c1ccco1,"inconclusive: 25.1 µM [inhibitor, single point]"
7,Cc1csc(NC(=O)CSCC(=O)O)c1-c1nc2ccccc2s1,"inconclusive: 70.8 µM [inhibitor, partial curve]"
8,O=C(CSc1nnc(CNC(=O)c2ccccc2)o1)NCc1ccco1,inactive
9,Cc1ccc(-c2c3c([nH]c(=S)c2C#N)CCCC3)o1,"inconclusive: 11.2 µM [inhibitor, full curve, poor fit]"
10,Cn1nc([N+](=O)[O-])c(C(C#N)c2nc3ccccc3n2C)c(Cl)c1=O (stereo unspecified),"inconclusive: 112 µM [inhibitor, partial curve, poor fit]"
11,COc1cccc(C(=O)N2CCN(Cc3ccc4c(c3)OCO4)CC2)c1OC,"inconclusive: 8.91 µM [inhibitor, partial curve, poor fit]"
12,COc1ccccc1-n1cnnc1SCC(=O)Nc1cc(C(C)(C)C)nn1-c1ccccc1,"inconclusive: 6.31 µM [inhibitor, partial curve, poor fit]"
13,CCCCn1c(N)c(N(CCOC)C(=O)COC(=O)c2cc(CC)c(C)s2)c(=O)[nH]c1=O,inactive
14,CCCCCC(=O)Nc1nc(C)c(-c2csc(Nc3cc(Cl)ccc3OC)n2)s1,"inconclusive: 25.1 µM [inhibitor, partial curve, poor fit]"
15,COc1ccc(S(=O)(=O)N2CCOCC2)cc1NC(=O)c1cccc(-n2cccc2)c1,active: 7.08 µM
16,CC1(c2nnc(Cc3ccccc3)o2)CC(c2ccc(C#N)cc2)=NO1 (stereo unspecified),"inconclusive: 10 µM [inhibitor, partial curve]"
17,N#Cc1ccc(/C=C/C(=O)c2ccco2)cc1,"inconclusive: 28.2 µM [inhibitor, partial curve]"
18,COc1cc(-c2nc3ccccc3c(=O)n2N)cc(OC)c1OC,"inconclusive: 3.55 µM [inhibitor, partial curve, poor fit]"
19,COc1ccc(OC)c(N(CC(=O)NCc2ccccc2)S(=O)(=O)c2ccccc2)c1,inactive
20,O=C(COC(=O)c1n[nH]c2ccccc12)c1ccc(F)c(F)c1,"inconclusive: 39.8 µM [inhibitor, partial curve, poor fit]"
21,C=CS(=O)(=O)c1sc(Cl)c(N2CCOCC2)c1[N+](=O)[O-],"inconclusive: 15.8 µM [inhibitor, full curve, poor fit]"

# Look-ups from the results shown.
# Value for `COc1cccc(C(=O)N2CCN(Cc3ccc4c(c3)OCO4)CC2)c1OC` under Potency: inconclusive: 8.91 µM [inhibitor, partial curve, poor fit]
# Value for `OCCNc1nc(N2CCN(c3ccccc3)CC2)nc2ccccc12` under Potency: inconclusive: 56.2 µM [inhibitor, single point]

# The list goes on:

row,SMILES,Potency
1,CCOC(=O)c1sc(N2C(=O)c3oc4cc(C)c(C)cc4c(=O)c3C2c2cccc(O)c2)nc1C (stereo unspecified),"inconclusive: 79.4 µM [inhibitor, single point]"
2,O=c1cc(CN2CCN(Cc3ccccc3)CC2)c2ccc(O)c(O)c2o1,"inconclusive: 3.55 µM [inhibitor, full curve, poor fit]"
3,O=C(C=Cc1ccccc1Cl)c1ccccc1,"inconclusive: 14.1 µM [inhibitor, full curve, poor fit]"
4,Cc1cc(N2CCCC2)c(F)cc1/C=C\[N+](=O)[O-],"inconclusive: 11.2 µM [inhibitor, partial curve, poor fit]"
5,Cc1ccccc1NC(=S)NCc1ccc2[nH]c3c(c2c1)CCCC3,"inconclusive: 2.24 µM [inhibitor, partial curve, poor fit]"
6,COc1ccc2sc(-c3ccccc3OC)c(C#CCCO)c2c1,"inconclusive: 22.4 µM [inhibitor, single point]"
7,CCc1nnc2c(Nc3ccc(Br)c(C)c3)nc3ccccc3n12,inactive
8,Cn1c(=O)c2c(n3c4ccccc4nc13)NC(=O)CC2c1ccccc1F (stereo unspecified),inactive
9,COc1ccc(-n2nnnc2-c2cccnc2)cc1,"inconclusive: 0.891 µM [inhibitor, full curve, poor fit]"
10,Cn1c(SCC(=O)N2CCCC2)nnc1-c1cnccn1,"inconclusive: 89.1 µM [inhibitor, single point]"
11,CCn1nc(C)c(NC(=O)c2cnn3c(C(F)F)cc(-c4ccccc4)nc23)c1C,"inconclusive: 100 µM [inhibitor, partial curve, poor fit]"
12,C#CCOCCOCCOCCNc1nc(N2CCOCC2)nc(N2CCN(C(=O)CCCCCCCCCCNC(=O)Cn3cc(CCCCCN)nn3)CC2)n1,"inconclusive: 15.8 µM [inhibitor, partial curve, poor fit]"
13,Cc1ccc(Cl)c2sc(N3CCN(C(=O)C4CC4)CC3)nc12,inactive
14,CSc1nsc(/C=C/Nc2ccc(Cl)cc2)c1C#N,"inconclusive: 28.2 µM [inhibitor, single point]"
15,COC(=O)c1ccccc1NC(=O)c1nc2nc(C)cc(C)n2n1,"inconclusive: 35.5 µM [inhibitor, single point]"
16,O=C(NCCc1c[nH]c2ccccc12)c1ccc2nc[nH]c2c1,"inconclusive: 14.1 µM [inhibitor, partial curve, poor fit]"
17,COc1cccc(N2CCN(C(=O)C3CCCN(S(=O)(=O)c4ccc(Br)s4)C3)CC2)c1 (stereo unspecified),inactive
18,CCc1cc(=O)oc2cc(C)cc(OCC(=O)NC(Cc3c[nH]c4ccc(O)cc34)C(=O)O)c12 (stereo unspecified),"inconclusive: 25.1 µM [inhibitor, partial curve, poor fit]"
19,COc1ccc(/C=N/NC(=O)c2ccc(C)nc2)cc1O,"inconclusive: 56.2 µM [inhibitor, partial curve, poor fit]"
20,C=CCn1c(SCC(=O)c2cc(C)n(Cc3cccs3)c2C)nnc1-c1ccncc1,"inconclusive: 56.2 µM [inhibitor, partial curve, poor fit]"
